No constants are given. Whether binding was seen depends on the method and setting. Some binding calls cover weakened binding; strength is not graded here.
Molecular target: T1, ScPCS60 (S. cerevisiae) (UniProt P38137)
T1 sequence: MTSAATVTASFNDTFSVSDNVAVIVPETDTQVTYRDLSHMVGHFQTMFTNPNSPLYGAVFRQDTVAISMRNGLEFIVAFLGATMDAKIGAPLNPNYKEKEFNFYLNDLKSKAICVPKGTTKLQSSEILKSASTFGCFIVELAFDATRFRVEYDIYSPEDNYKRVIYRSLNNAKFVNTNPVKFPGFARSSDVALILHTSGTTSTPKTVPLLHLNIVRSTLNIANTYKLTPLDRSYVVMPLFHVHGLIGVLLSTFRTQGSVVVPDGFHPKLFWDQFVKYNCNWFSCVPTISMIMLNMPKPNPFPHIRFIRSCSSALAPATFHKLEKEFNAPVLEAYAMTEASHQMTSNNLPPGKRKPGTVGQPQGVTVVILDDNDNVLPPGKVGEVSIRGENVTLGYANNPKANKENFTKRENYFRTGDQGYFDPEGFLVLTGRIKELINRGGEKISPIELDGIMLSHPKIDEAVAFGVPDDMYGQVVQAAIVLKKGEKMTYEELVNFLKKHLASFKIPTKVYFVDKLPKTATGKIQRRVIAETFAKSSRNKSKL
Test: two-hybrid

- binding: binds
B1: ScPEX5 (protein, UniProt P35056 1-612)
chain: MDVGSCSVGNNPLAQLHKHTQQNKSLQFNQKNNGRLNESPLQGTNKPGISEAFISNVNAISQENMANMQRFINGEPLIDDKRRMEIGPSSGRLPPFSNVHSLQTSANPTQIKGVNDISHWSQEFQGSNSIQNRNADTGNSEKAWQRGSTTASSRFQYPNTMMNNYAYASMNSLSGSRLQSPAFMNQQQSGRSKEGVNEQEQQPWTDQFEKLEKEVSENLDINDEIEKEENVSEVEQNKPETVEKEEGVYGDQYQSDFQEVWDSIHKDAEEVLPSELVNDDLNLGEDYLKYLGGRVNGNIEYAFQSNNEYFNNPNAYKIGCLLMENGAKLSEAALAFEAAVKEKPDHVDAWLRLGLVQTQNEKELNGISALEECLKLDPKNLEAMKTLAISYINEGYDMSAFTMLDKWAETKYPEIWSRIKQQDDKFQKEKGFTHIDMNAHITKQFLQLANNLSTIDPEIQLCLGLLFYTKDDFDKTIDCFESALRVNPNDELMWNRLGASLANSNRSEEAIQAYHRALQLKPSFVRARYNLAVSSMNIGCFKEAAGYLLSVLSMHEVNTNNKKGDVGSLLNTYNDTVIETLKRVFIAMNRDDLLQEVKPGMDLKRFKGEFSF
